{"sequences": {"note": "Chains of the proteins cited; added tags and fusions are not shown. Lines headed by an entry give the natural chain unless they say otherwise; changes in a name come on top.", "UniProt Q5TCQ9": "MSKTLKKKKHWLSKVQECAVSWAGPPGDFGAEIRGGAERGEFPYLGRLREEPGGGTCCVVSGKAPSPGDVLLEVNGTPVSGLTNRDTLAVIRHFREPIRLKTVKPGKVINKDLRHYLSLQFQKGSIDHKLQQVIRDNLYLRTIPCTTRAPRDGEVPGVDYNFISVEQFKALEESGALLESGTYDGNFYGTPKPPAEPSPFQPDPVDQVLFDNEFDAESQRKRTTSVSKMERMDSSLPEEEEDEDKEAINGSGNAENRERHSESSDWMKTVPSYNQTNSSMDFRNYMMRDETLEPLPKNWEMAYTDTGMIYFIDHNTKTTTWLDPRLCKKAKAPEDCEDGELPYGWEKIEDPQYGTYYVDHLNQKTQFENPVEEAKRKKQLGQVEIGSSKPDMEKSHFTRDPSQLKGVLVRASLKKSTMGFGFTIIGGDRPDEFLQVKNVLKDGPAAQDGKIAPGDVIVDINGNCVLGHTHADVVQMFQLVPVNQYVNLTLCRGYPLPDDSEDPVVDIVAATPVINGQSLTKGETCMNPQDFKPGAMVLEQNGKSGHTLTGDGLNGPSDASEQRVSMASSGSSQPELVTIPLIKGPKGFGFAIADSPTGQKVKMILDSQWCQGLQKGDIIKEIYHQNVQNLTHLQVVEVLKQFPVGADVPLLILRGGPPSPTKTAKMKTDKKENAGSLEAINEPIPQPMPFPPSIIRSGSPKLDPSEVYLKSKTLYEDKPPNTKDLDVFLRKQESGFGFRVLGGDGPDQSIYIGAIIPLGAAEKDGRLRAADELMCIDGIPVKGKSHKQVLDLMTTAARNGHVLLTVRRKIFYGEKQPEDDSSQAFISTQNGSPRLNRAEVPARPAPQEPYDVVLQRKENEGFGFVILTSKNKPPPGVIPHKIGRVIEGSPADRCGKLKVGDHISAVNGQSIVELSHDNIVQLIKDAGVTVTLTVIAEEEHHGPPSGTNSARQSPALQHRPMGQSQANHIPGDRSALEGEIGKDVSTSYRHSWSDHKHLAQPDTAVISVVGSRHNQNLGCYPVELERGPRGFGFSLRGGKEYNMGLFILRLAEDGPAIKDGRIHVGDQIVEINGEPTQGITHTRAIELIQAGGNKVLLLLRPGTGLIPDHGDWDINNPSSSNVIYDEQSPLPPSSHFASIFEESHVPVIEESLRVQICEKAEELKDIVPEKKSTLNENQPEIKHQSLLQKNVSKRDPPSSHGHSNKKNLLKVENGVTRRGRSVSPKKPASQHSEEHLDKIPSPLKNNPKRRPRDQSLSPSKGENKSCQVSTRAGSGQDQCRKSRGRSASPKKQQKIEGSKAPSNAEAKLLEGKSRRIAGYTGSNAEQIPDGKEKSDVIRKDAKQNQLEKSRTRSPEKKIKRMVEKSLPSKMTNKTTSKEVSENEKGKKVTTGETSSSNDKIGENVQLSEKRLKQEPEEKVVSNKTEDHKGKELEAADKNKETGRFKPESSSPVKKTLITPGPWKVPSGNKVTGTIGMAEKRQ"}, "source": "paper PMC4905742", "binders": {"B1": {"name": "SERPINB5 (protein, UniProt P36952 1-375)", "chain": "MDALQLANSAFAVDLFKQLCEKEPLGNVLFSPICLSTSLSLAQVGAKGDTANEIGQVLHFENVKDVPFGFQTVTSDVNKLSSFYSLKLIKRLYVDKSLNLSTEFISSTKRPYAKELETVDFKDKLEETKGQINNSIKDLTDGHFENILADNSVNDQTKILVVNAAYFVGKWMKKFSESETKECPFRVNKTDTKPVQMMNMEATFCMGNIDSINCKIIELPFQNKHLSMFILLPKDVEDESTGLEKIEKQLNSESLSQWTNPSTMANAKVKLSIPKFKVEKMIDPKACLENLGLKHIFSEDTSDFSGMSETKGVALSNVIHKVCLEITEDGGDSIEVPGARILQHKDELNADHPFIYIIRHNKTRNIIFFGKFCSP"}}, "molecular_target": "V5-tagged, full-length MAGI3 (in MCF10A cells) (human) (UniProt Q5TCQ9)", "test": "affinity purification with mass spectrometry; affinity purification of V5-tagged full-length MAGI3 from MCF10A cells; IP lysates separated by SDS-PAGE, gel in six sections, LC-MS/MS; common contaminants (CRAPome) subtracted", "note": "Results are given in words; binding and its absence hold for the method and conditions named. In cells and extracts the contact can be indirect. These calls come from enrichment with a bait or labelling near it, and not all partners need be listed."}
{"binder": "B1", "values": [{"measurement": "binding", "value": "binds"}]}
